# The campaign covered roughly 340,000 compounds. About 6,200 (1.8%) were called active. This list was built around the results that the source calls inconclusive (neither active nor inactive); the mix of calls is not that of the screen. Calls come from the whole dose curve; as a rule, active = well fitted activation curve with a large enough effect; inconclusive = small, poorly fitted or top-dose-only effect; inactive = no such curve, though single readings can be large or run the other way. Where the call is inconclusive, the potency comes from a doubtful curve fit.
# Assay: A quantitative high throughput screen for small molecules that induce DNA re-replication in SW480 colon adenocarcinoma cells. For re-replication activation: % of control where 0% means no effect. Note: nearly all actives have a fitted effect of over 55% in size.
# Settings: Hoechst DNA content imaging, 48 h; re-replication activation: at 46.1 µM (top of the series)
# Outline: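 250 cells/well; 23 nL cpd via pin tool; 48 hr, 37 C, 5% CO2; Hoechst 40 min; imager read of total nuclear intensity, ex 405/em 500-530 nm.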
# Potency is the fitted concentration of half-maximal effect.
Compound,Potency,re-replication activation
CCOc1ccc(NS(=O)(=O)c2cc(C(=O)N3CCC3)ccc2Cl)cc1,"inconclusive: 0.82 µM [activator, partial curve, poor fit]",–
CN1CCN(C2CCN(c3cccc(Cl)c3)CC2)CC1CCO (configuration not stated),"inconclusive: 6.51 µM [activator, partial curve, poor fit]",–
Cc1ccc(C)c(Nc2nc(-c3ccncc3)nc3ccccc23)c1,–,inconclusive: -21.4% [activator]
COCCCn1c(SCC(=O)NC2CCS(=O)(=O)C2)nnc1-c1ccc(Cl)cc1 (configuration not stated),inactive,–
COc1ccc(CN(C)C(=O)CCl)cc1,"inconclusive: 29.1 µM [activator, single point]",–
COc1ccc(S(=O)(=O)N2c3ccccc3OCC2CC(=O)O)cc1 (configuration not stated),"inconclusive: 29.1 µM [activator, single point]",–
N#CC(C(=O)OC1CCCCC1)c1nc2ccccc2nc1N1CCOCC1 (configuration not stated),inactive,–
Cc1cc(C)n(-c2nc3ccccc3c(=O)n2OCCOc2ccccc2)n1,"inconclusive: 29.1 µM [activator, single point]",–
Cc1ccc(C(=O)N/C(=C\c2sccc2C)C(=O)NCCCN2CCOCC2)cc1,inactive,–
CN(C)CCCC1Sc2ccccc2Sc2ccccc21 (configuration not stated),"inconclusive: 16.4 µM [activator, single point]",–
Cc1ccc(C(=O)N2CC3(C(C)C)CN(C(=O)c4ccc(C)cc4)CC(C(C)C)(C2)C3=O)cc1,inactive,–
CCOC(=O)c1cc2c(=Cc3ccc(N(C)C)cc3)c3ccccc3n2[n+]1C,"inconclusive: 2.06 µM [activator, full curve]",–
COc1cccc(OCc2cc(C(=O)NCCc3cccc(C)n3)no2)c1,"inconclusive: 29.1 µM [activator, single point]",–
COc1cc(CC(NC(C)=O)C(=O)NC2CCN(C(=O)Nc3ccc(C)cc3)CC2)cc(OC)c1 (configuration not stated),"inconclusive: 29.1 µM [activator, single point]",–
CC(C)(C)n1nnnc1C(c1cccnc1)N1CCN(C(=O)c2ccco2)CC1 (configuration not stated),"inconclusive: 29.1 µM [activator, single point]",–
Cc1ccc(C(=O)Nc2nc(-c3ccccn3)cs2)cc1S(=O)(=O)N1CCOCC1,"inconclusive: 29.1 µM [activator, single point]",–
O=C1NCCCC1C(=O)N/N=C/c1cccc([N+](=O)[O-])c1 (configuration not stated),"inconclusive: 6.51 µM [activator, single point]",–
Cc1cc(C)nc(NC(=O)/C=C/c2ccc3c(c2)OCO3)c1,inactive,–
CCOC(=O)CN1C(=O)S/C(=C/c2ccc(O)c([N+](=O)[O-])c2)C1=O,inactive,–
CN(C(=O)Cn1nc(C(=O)O)c2ccccc2c1=O)C1(C#N)CCCCC1,"inconclusive: 0.146 µM [activator, full curve, poor fit]",–
CC(=O)c1ccc(NC(=O)/C(Cl)=C/c2ccccc2)cc1,inactive,–

Compound,Potency,re-replication activation
Cc1ccccc1OCC(=O)NCC(=O)N/N=C/c1ccc(Br)o1,"inconclusive: 0.259 µM [activator, full curve, poor fit]",–
OC(CNc1nc(-c2cccnc2)nc2ccccc12)c1ccccc1 (configuration not stated),"inconclusive: 29.1 µM [activator, single point]",–
O=C(/C=C/c1cccc(F)c1)Nc1ccc(S(=O)(=O)N2CCOCC2)cc1,"inconclusive: 20.6 µM [activator, single point]",–
C=C(CN(C)C)C(=O)c1ccc(OC2OC(COC(C)=O)C(OC(C)=O)C(OC(C)=O)C2OC(C)=O)cc1 (configuration not stated),active: 5.8 µM,–
O=C(Cn1cc(/C=N/NC(=O)c2cccc(C(F)(F)F)c2)c2ccccc21)Nc1ccc(F)cc1,"inconclusive: 20.6 µM [activator, single point]",–
Cc1cc(NC(=O)C(C)Sc2nc(-c3cccs3)nc3ccccc23)no1 (configuration not stated),"inconclusive: 8.2 µM [activator, partial curve, poor fit]",–
CCn1c(SCC(=O)OC)nnc1C1CCCCC1,inactive,–
COCCCNC(=O)c1cc2c(-c3cccc(OC)c3)nn(C)c2s1,"inconclusive: 29.1 µM [activator, single point]",–
CCOCCCNC(=O)c1cccc(OC2CCN(S(C)(=O)=O)CC2)c1,"inconclusive: 9.2 µM [activator, single point]",–
COc1cccc(C(=O)Nc2nc3ccccc3s2)c1,–,inconclusive: -7.09% [activator]
O=C(CN1CCCCC1)Nc1cccc([N+](=O)[O-])c1,inactive,–
COCCNC(=O)c1ccc(-n2c(SCc3cc(F)ccc3F)nc3ccccc3c2=O)cc1,inactive,–
CCOC(=O)/C=c1\s/c(=C(\C#N)C(=O)NC)n(-c2ccccc2)c1=O,"inconclusive: 16.4 µM [activator, single point]",–
Cc1oc(/C=N/NC(=O)CN(c2ccccc2Br)S(C)(=O)=O)cc1Br,"inconclusive: 29.1 µM [activator, partial curve, poor fit]",–
Cc1ccc(C(=O)c2oc3ccccc3c2NC(=O)c2cc(-c3cc(C)ccc3O)n[nH]2)cc1,"inconclusive: 1.46 µM [activator, full curve, poor fit]",–
CCOCCCn1c(=N)c(S(=O)(=O)c2ccc(C)cc2)cc2c(=O)n3cc(C)ccc3nc21,"inconclusive: 3.26 µM [activator, full curve]",–
Cc1cccc(OCCc2c(C)[nH]c(=S)[nH]c2=O)c1,"inconclusive: 23.1 µM [activator, single point]",–
COC(=O)c1ccccc1NC(=O)Nc1cc(C)ccn1,"inconclusive: 29.1 µM [activator, single point]",–
Cc1csc2nc(COC(=O)c3ccc(Cl)c([N+](=O)[O-])c3)cc(=O)n12,"inconclusive: 29.1 µM [activator, single point]",–
CC(C)N(C(=O)[C@H]1C[C@H](CC(=O)NCc2cccc(C(F)(F)F)c2)C(=O)N2CCc3c([nH]c4cc(CCC(=O)N(C)C)ccc34)[C@]12C)C(C)C,"inconclusive: 5.8 µM [activator, full curve, poor fit]",–
COc1ccc(-c2cncnc2-c2ccc(OC)cc2O)cc1,inactive,–

# Quoted at random: two compounds from above, in no set order.
Compound,Potency,re-replication activation
CCOCCCn1c(=N)c(S(=O)(=O)c2ccc(C)cc2)cc2c(=O)n3cc(C)ccc3nc21,"inconclusive: 3.26 µM [activator, full curve]",–
Cc1csc2nc(COC(=O)c3ccc(Cl)c([N+](=O)[O-])c3)cc(=O)n12,"inconclusive: 29.1 µM [activator, single point]",–
